# Test results published in PMC7819943, “Rice protein-binding microarrays: a tool to detect cis-acting elements near promoter regions in rice”.
# Protein sequences, listed by entry. Tags and fused reporters are not part of them.
# UniProt Q0JBA9, entry or part of it: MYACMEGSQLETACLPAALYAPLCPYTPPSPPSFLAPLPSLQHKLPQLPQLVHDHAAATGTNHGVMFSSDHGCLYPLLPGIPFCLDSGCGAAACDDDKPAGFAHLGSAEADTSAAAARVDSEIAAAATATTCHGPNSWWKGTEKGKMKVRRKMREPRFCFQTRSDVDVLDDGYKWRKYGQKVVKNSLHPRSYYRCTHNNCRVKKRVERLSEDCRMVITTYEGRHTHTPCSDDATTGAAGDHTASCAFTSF
# This is one part of the list.
# Molecular target: OsWRKY34 (Oryza sativa, UniProt Q0JBA9 1-250)
# Assay: protein-binding microarray (RPBM); PBS, 2% BSA, 51.3 ng/ul salmon testes DNA, 50 uM zinc acetate, 200 nM TF, 25 C, 1 h; high values mean tight binding
# Conditions: protein: recombinant; tags: N-terminal polyhistidine and DsRed monomer fusion (pET32a); label: CyDye5-dUTP incorporated in the synthesized complementary strand; 3' TTTTT single-stranded linker to array surface; dsDNA, one strand shown
# In short: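 Using Ni–NTA, transcription factors fused N-terminally to polyhistidine and DsRed were purified after expression in E. coli BL21-CodonPlus. These were incubated at 200 nM with a blocked, double-stranded custom Agilent array for 1 h at 25 °C in a buffer containing 50 µM zinc acetate, and the array was washed. The binding signal is per-feature fluorescence intensity (arbitrary units) on an Axon 4000B scanner.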
row,Sequence,binding signal
1,ATAAGACGAACGGTCAAACATGTGCTAAAAAAGTCAACGGCGGAGTCACCTAGTGCAG,11300 fluorescence intensity (a.u.)
2,TGAGTAATGTTTTTTTCACTGAATATTCTTTAATGTTAATCGGAGTCACCTAGTGCAG,8790 fluorescence intensity (a.u.)
3,GGTTGGCAGCGGCGGCGGAGGTGGGGAGAGGCGGGTGGTTCGGAGTCACCTAGTGCAG,13600 fluorescence intensity (a.u.)
4,ATTGCTTCCTTTTCCAACACCGCCTTTTAACCCTAAAAACCGGAGTCACCTAGTGCAG,9550 fluorescence intensity (a.u.)
5,ACGGACACGTGCCGGTGAGGGATGGGTTTGAATGGTTTGACGGAGTCACCTAGTGCAG,9890 fluorescence intensity (a.u.)
6,ATCCACAGCGGCCAGCCGGCCACCGACCCCTGGTCCAATCCGGAGTCACCTAGTGCAG,8800 fluorescence intensity (a.u.)
7,GCCACCACCAAGCCTTTGGTTTCTTTCACGCGCGCTCGCCCGGAGTCACCTAGTGCAG,9640 fluorescence intensity (a.u.)
8,TCTTGTTCTGCCTCTCTGTCTGGCGACTGGCGTCGTCGCTCGGAGTCACCTAGTGCAG,11000 fluorescence intensity (a.u.)
9,GTGCGCCATATCGATCACGTATACGTACGCGCGCGTGTTCCGGAGTCACCTAGTGCAG,10200 fluorescence intensity (a.u.)
10,ATGGATTTGGGAATTTGGGTGGGCGCGGAGCTCCTGATTCCGGAGTCACCTAGTGCAG,9550 fluorescence intensity (a.u.)
11,CATAAACTCATTTTCATCCATCACCCGTCATCCCACAGCTCGGAGTCACCTAGTGCAG,11300 fluorescence intensity (a.u.)
12,CGATATCCGGTCAAACGTTCGCTGTGACATCCAAAATTTTCGGAGTCACCTAGTGCAG,9580 fluorescence intensity (a.u.)
13,AGCCACCACAGCCATCGCCCGTTCTTCCCGCCGGCCTATCCGGAGTCACCTAGTGCAG,9990 fluorescence intensity (a.u.)
14,ATGATAAAGTTTCCGTACTTTTTCGATCCGTTTTCATCCCCGGAGTCACCTAGTGCAG,8350 fluorescence intensity (a.u.)
15,ATTTTATTTTCAATTTTTTAGAACCGTTTGATTGGTATTTCGGAGTCACCTAGTGCAG,8620 fluorescence intensity (a.u.)
16,TTCCTTTTTTTCCCATCTTTATCCACCGCTTCTCAGCCTCCGGAGTCACCTAGTGCAG,10300 fluorescence intensity (a.u.)
17,GCTGCTCGAGCGAGCGCGCACACACTATCACAGGGAGGGGCGGAGTCACCTAGTGCAG,8920 fluorescence intensity (a.u.)
18,TGTTGGCTTGTATATATCTGTCTAGATCTTTCTTCTCACTCGGAGTCACCTAGTGCAG,11000 fluorescence intensity (a.u.)
19,ATTATTATTTATTTTATTTGTGACTTACTTTATTATCCAACGGAGTCACCTAGTGCAG,9000 fluorescence intensity (a.u.)
20,TTATTTATTAATCTGTTGTATATTCTGCACTATCATTCCTCGGAGTCACCTAGTGCAG,9020 fluorescence intensity (a.u.)
21,TCCTCTGTTTTACACTTGCATTCCTATCAGAATCCTATATCGGAGTCACCTAGTGCAG,9540 fluorescence intensity (a.u.)

row,Sequence,binding signal
1,GTTCTTGAACTGCCTCTAGTATGAGAAATTTTTTTTTTTACGGAGTCACCTAGTGCAG,9530 fluorescence intensity (a.u.)
2,TAGTATTTTTTTCCTTGGTTTTGTTTCTATCTCCTCTGACCGGAGTCACCTAGTGCAG,9480 fluorescence intensity (a.u.)
3,TACTTCTATGCAATATATGGACCATCATCTATTACCTAATCGGAGTCACCTAGTGCAG,8150 fluorescence intensity (a.u.)
4,TCTTCTTGTTTGCTGATCTTGTTCCTTGGTGGAAGGATGCCGGAGTCACCTAGTGCAG,9990 fluorescence intensity (a.u.)
5,GTCCACTGTTTTATTCGGCCATATGAGGCCTTCGATTCAGCGGAGTCACCTAGTGCAG,8250 fluorescence intensity (a.u.)
6,ATCTCATCCGTCCGCTGTACACCGTAGCTCTATCTCTTCCCGGAGTCACCTAGTGCAG,11500 fluorescence intensity (a.u.)
7,AAACACCTCTTTGGCCTGGTTTAGTTTCTAACTTTTTCTTCGGAGTCACCTAGTGCAG,8780 fluorescence intensity (a.u.)
8,GCGCGAGAAATTTGTCCTAAATCCCACCATTACCGCGGCCCGGAGTCACCTAGTGCAG,8390 fluorescence intensity (a.u.)
9,AAGGAATCCGATGTTTGTTTACTGCTCGTTTAGTTTCTACCGGAGTCACCTAGTGCAG,11100 fluorescence intensity (a.u.)
10,CACATCCTCATCTTCTCCTCCGTTGCCGGCGATGACGCGTCGGAGTCACCTAGTGCAG,8980 fluorescence intensity (a.u.)
11,GCCTAATCGGGCAGCGCACAAACGTACCTATTATTTATCCCGGAGTCACCTAGTGCAG,9630 fluorescence intensity (a.u.)
12,CTCTCTCCCGCTTCTGTCTCCGTGTGTGCATATATATATGCGGAGTCACCTAGTGCAG,14700 fluorescence intensity (a.u.)
13,CCATGCATTTACTCCATAATTTCCACAACTTGCACAAACCCGGAGTCACCTAGTGCAG,8120 fluorescence intensity (a.u.)
14,GTCTTGAACTTCAGTTGTGCCGCCGCATGCATCCTGTTCTCGGAGTCACCTAGTGCAG,8740 fluorescence intensity (a.u.)
15,ACACTACCTTAGTTCTTCTACATTTTACTATCTCCAACTCCGGAGTCACCTAGTGCAG,12800 fluorescence intensity (a.u.)
16,GGTGATGAGTGGTGGGGAGAAGGATGGCTACCAACTTGGACGGAGTCACCTAGTGCAG,8540 fluorescence intensity (a.u.)
17,ACCTTTTTTTGTTTCTTTTACTTGTCATTACTGGCCATTACGGAGTCACCTAGTGCAG,12800 fluorescence intensity (a.u.)
18,TGGTTTGTACGATGGTAGTTCCTAGATGTTGCAGTCGTCGCGGAGTCACCTAGTGCAG,8960 fluorescence intensity (a.u.)
19,CGTCGCTCTCTCTATCATCCAACGGTGTACTTTATTTTTTCGGAGTCACCTAGTGCAG,9550 fluorescence intensity (a.u.)
20,GGTGTCCGCAGTTACAGGGGTTGGGCGGGTCCCACGCGCTCGGAGTCACCTAGTGCAG,10300 fluorescence intensity (a.u.)
21,CTAGGTAAGTTTTGAAATTAGTTTTTTTATACGTGTTCCTCGGAGTCACCTAGTGCAG,8330 fluorescence intensity (a.u.)

row,Sequence,binding signal
1,TCCATCTGTCCGCTCTCTCCTCTTCTTCTTCCTGATAAACCGGAGTCACCTAGTGCAG,8680 fluorescence intensity (a.u.)
2,CCATGCGACACTCTGCTTTTCCCGGTTTTAGGGGCTATTTCGGAGTCACCTAGTGCAG,11300 fluorescence intensity (a.u.)
3,GCTCTCTTCCCGCTATTCTTCTCGTCCAGATCTGGACGTCCGGAGTCACCTAGTGCAG,9010 fluorescence intensity (a.u.)
4,ACAGAAACTCTGCCCGATATTCGATTGGATTTCCTTGGTTCGGAGTCACCTAGTGCAG,8990 fluorescence intensity (a.u.)
5,CTTATGGCTTTTGATGCACCCACCGTCTTTTTAAGTTTGTCGGAGTCACCTAGTGCAG,9440 fluorescence intensity (a.u.)
6,AGGGTCGGGAGCGAGGCGTTCTTGATTTTTTTCTTCTTCTCGGAGTCACCTAGTGCAG,8720 fluorescence intensity (a.u.)
7,AAGTCCATTTGTTCACACGTCTCACCGGATCATCGAACCACGGAGTCACCTAGTGCAG,11800 fluorescence intensity (a.u.)
8,GGCTTCCCGTTGCGCGCGCGTCCCATCCTCGCCGGCGCTTCGGAGTCACCTAGTGCAG,8470 fluorescence intensity (a.u.)
9,CCTCCTGCATCGTCAAATCATGATGGATTGTTATTGGACCCGGAGTCACCTAGTGCAG,9130 fluorescence intensity (a.u.)
10,TTTTTATGTCACTTACATGTGGTCCCCACATATTTATTCTCGGAGTCACCTAGTGCAG,10600 fluorescence intensity (a.u.)
11,GATGCCTCCGTCTCTGATCCCCTTGCCACCCCTACCGGATCGGAGTCACCTAGTGCAG,8690 fluorescence intensity (a.u.)
12,ACTTTGATGACTCCCCTTTTTCCCGCCGCTCGCGTTTGCCCGGAGTCACCTAGTGCAG,8180 fluorescence intensity (a.u.)
13,ATCGCCTCACTCCACCACCCCACGCTTCCTTCGCCGCTAACGGAGTCACCTAGTGCAG,10900 fluorescence intensity (a.u.)
14,AACAGTTCTGTAAGTTGATGGATGCCCTATATCTGGTTTTCGGAGTCACCTAGTGCAG,9310 fluorescence intensity (a.u.)
15,CCCCTAAACTCGTCGCGCAAACTATTGGTTCCGTTTGTGACGGAGTCACCTAGTGCAG,8570 fluorescence intensity (a.u.)
16,GATTGTCGCGCCGTCCTAACCCAGCCGCGCCCCTCGGGCCCGGAGTCACCTAGTGCAG,8930 fluorescence intensity (a.u.)
17,GTATCTCCCGTTTTGTCGTTGAAAGCGCCGCGTTTTTCCACGGAGTCACCTAGTGCAG,9220 fluorescence intensity (a.u.)
18,ATATCCATTTTCTCGTCAATGCCACGGCATGTTTGAGTTACGGAGTCACCTAGTGCAG,8660 fluorescence intensity (a.u.)
19,TTTTTTTCTTGCACGCGGTAAGGGCTTTCGGTTTTTTGGTCGGAGTCACCTAGTGCAG,10800 fluorescence intensity (a.u.)
20,TTTGTGTGTGTGTTGTTGGTCGGGTGGGGTCGCCGGCGCCCGGAGTCACCTAGTGCAG,20100 fluorescence intensity (a.u.)
21,AAGGGGATATGGTGGTCATGAATAGATAGATACGTTAGGTCGGAGTCACCTAGTGCAG,9760 fluorescence intensity (a.u.)

# 2 entries from above, with tabs:
row	Sequence	binding signal
20	TTTGTGTGTGTGTTGTTGGTCGGGTGGGGTCGCCGGCGCCCGGAGTCACCTAGTGCAG	20100 fluorescence intensity (a.u.)
21	AAGGGGATATGGTGGTCATGAATAGATAGATACGTTAGGTCGGAGTCACCTAGTGCAG	9760 fluorescence intensity (a.u.)

# (cont.)

row,Sequence,binding signal
1,CCCAACCTTGCACACATCGATCATCATACTCCCATCCTTTCGGAGTCACCTAGTGCAG,11000 fluorescence intensity (a.u.)
2,CCGGACGCCAGCTCACGAATATCCACCCGATTTAATCCCGCGGAGTCACCTAGTGCAG,8580 fluorescence intensity (a.u.)
3,GTCCTATCTCTCGTGTTTTATCGGACATCCGATTGCCTCTCGGAGTCACCTAGTGCAG,8960 fluorescence intensity (a.u.)
4,TACACACATAAACTTTCAATTTTTCCGTCATATCGTTCTACGGAGTCACCTAGTGCAG,9420 fluorescence intensity (a.u.)
5,CATCAAATTCTTCGTATGCCACTTTTTTAGCATCAAATTCCGGAGTCACCTAGTGCAG,9250 fluorescence intensity (a.u.)
6,TCTCATCTCCTCGACCCTATTATCAGTAGCCTCTCTTGTACGGAGTCACCTAGTGCAG,8830 fluorescence intensity (a.u.)
7,GCTACCCTATTCCTTTCTTTCTTTCTTAGTAGGTCTTTCTCGGAGTCACCTAGTGCAG,12000 fluorescence intensity (a.u.)
8,TCCGCACAACGTTGACTGGGTCATTACATCATTTTCCGTACGGAGTCACCTAGTGCAG,11400 fluorescence intensity (a.u.)
9,CTCCCTGTTCGTTCGTGACGGCTCGGCTTCCTCTCCGCTCCGGAGTCACCTAGTGCAG,9910 fluorescence intensity (a.u.)
10,CCTCCCTCCTCTCCTCTCCTCGCTTCCGGGTTCCGCCGCGCGGAGTCACCTAGTGCAG,8430 fluorescence intensity (a.u.)
11,ACACTACCATTGATGTCTGTTTGGTTTTCACATTTTTTACCGGAGTCACCTAGTGCAG,14300 fluorescence intensity (a.u.)
12,CCCCGTCCCGTCCGTCGCCGACGACGCTCACCCTCGCACGCGGAGTCACCTAGTGCAG,8600 fluorescence intensity (a.u.)
13,CTTTTTATCTCGTTTACTGATTTTTGTTGTATATCACACACGGAGTCACCTAGTGCAG,13200 fluorescence intensity (a.u.)
14,AATAAGACGAAAAGTCAAACGTTTGTCAAAAAGTCAACGGCGGAGTCACCTAGTGCAG,8290 fluorescence intensity (a.u.)
15,CTCACCTCTTGCAATTGCTGCTACTTGATTAATCATAATACGGAGTCACCTAGTGCAG,8580 fluorescence intensity (a.u.)
16,ACACTCTTTGGCCATTAATTGTCTTTTTAGAAGATCCTTTCGGAGTCACCTAGTGCAG,8940 fluorescence intensity (a.u.)
17,CGACACGAACAAGCATGCCTCCGCTTTCTGAGAACGTTTACGGAGTCACCTAGTGCAG,8170 fluorescence intensity (a.u.)
18,TTCCCAACCCCTCTCTCTCGTTTTCCGCACGCACGCTTTTCGGAGTCACCTAGTGCAG,9830 fluorescence intensity (a.u.)
19,TGTAGGTTTGTCATCTTGCAGAATTTTTTAGTTTTAATTTCGGAGTCACCTAGTGCAG,10500 fluorescence intensity (a.u.)
20,ATTCGGTACAGTACTACAGTGCTCGGGTGTATTTTTGCAACGGAGTCACCTAGTGCAG,8650 fluorescence intensity (a.u.)
21,GACTGATTTGTTTTTTTTTTCTCCCGGTTTTTTCGACGGACGGAGTCACCTAGTGCAG,9270 fluorescence intensity (a.u.)

# Looked up one by one from the list above (three):
row,Sequence,binding signal
16,ACACTCTTTGGCCATTAATTGTCTTTTTAGAAGATCCTTTCGGAGTCACCTAGTGCAG,8940 fluorescence intensity (a.u.)
1,CCCAACCTTGCACACATCGATCATCATACTCCCATCCTTTCGGAGTCACCTAGTGCAG,11000 fluorescence intensity (a.u.)
11,ACACTACCATTGATGTCTGTTTGGTTTTCACATTTTTTACCGGAGTCACCTAGTGCAG,14300 fluorescence intensity (a.u.)
